Reference: PubChem BioAssay AID248 (DTP/NCI, 2004)
The list shows only some results of the screen, not a fair sample: it gathers tests that were run many times, whatever their T/C, doses with no T/C, and many T/C values between a quarter and a half above the control. Further doses and runs are listed elsewhere. T/C: endpoint of the treated group in % of that of the vehicle group. Some doses have a count of surviving animals in place of a T/C: the source files T/C as zero there, which appears to mark a toxic dose or a test without result, not a measured value. Some survivor counts are full or nearly so, which does not show that the dose was tolerated: survival well below the control is almost never listed, so the zero probably covers shortened survival too. Survivors were counted at the toxicity check, usually on the fifth day, unless a day is given; later deaths do not show. Schedule codes are those of the source, read here as Q, the interval in days (D) or hours (H), X, the number of doses. Some entries hold several experiments; the results are listed from low to high. Some schedule codes hold Z or #, which are not explained here. Where survival is the endpoint, this PubChem deposit counts one and a half times the control or more as active, and values a quarter to a half above the control carry no call in these data; other NCI protocols may use other cut-offs. Some T/C values carry the count of animals alive at the toxicity check (mostly the fifth day); where none is given, no animal had died by that day.

System: L1210 leukemia ip in BDF1 mice, survival T/C
Assay: NCI In Vivo Anticancer Drug Screen. Data for tumor model L1210 Leukemia (intraperitoneal) in B6D2F1 (BDF1) mice
Details: higher T/C = longer survival
[1] = T/C endpoint: mean survival time, dose: 200.0 mg/kg/injection, schedule: Q01DX001 (ip), vehicle: carboxymethylcellulose (CMC)
[2] = T/C endpoint: mean survival time, dose: 400.0 mg/kg/injection, schedule: Q04DX003 (ip), vehicle: saline with Tween-80
[3] = T/C endpoint: mean survival time, dose: 200.0 mg/kg/injection, schedule: Q01DX001 (ip), vehicle: saline
[4] = T/C endpoint: mean survival time, dose: 400.0 mg/kg/injection, schedule: Q01DX001 (ip), vehicle: saline
[5] = T/C endpoint: mean survival time, dose: 300.0 mg/kg/injection, schedule: Q01DX001 (ip), vehicle: saline

CCC(=O)C(CC(C)[N+](C)(C)C)(c1ccccc1)c1ccccc1 (stereo unspecified)
survivor count [1]: 0 of 4
survivor count (T/C endpoint: mean survival time, dose: 400.0 mg/kg/injection, schedule: Q01DX001 (ip), vehicle: carboxymethylcellulose (CMC)): 0 of 4

C(=N\c1nncs1)/Nc1nncs1
T/C (T/C endpoint: mean survival time, dose: 60.0 mg/kg/injection, schedule: Q01DX015 (ip), vehicle: carboxymethylcellulose (CMC)): 129 % of control
survivor count (T/C endpoint: mean survival time, dose: 90.0 mg/kg/injection, schedule: Q01DX015 (ip), vehicle: carboxymethylcellulose (CMC)): 4 of 6
survivor count (T/C endpoint: mean survival time, dose: 135.0 mg/kg/injection, schedule: Q01DX015 (ip), vehicle: carboxymethylcellulose (CMC)): 5 of 6
survivor count [1]: 2 of 4

CN(C)C(=O)NNC(=O)c1ccc(Cl)cc1
survivor count [2]: 1 of 6

c1ccc(C[As+](c2ccccc2)(c2ccccc2)c2ccccc2)cc1
survivor count (T/C endpoint: mean survival time, dose: 80.0 mg/kg/injection, schedule: Q01DX001 (ip), vehicle: saline): 0 of 6
survivor count (T/C endpoint: mean survival time, dose: 100.0 mg/kg/injection, schedule: Q04DX002 (ip), vehicle: saline with Tween-80): 0 of 3
survivor count (T/C endpoint: mean survival time, dose: 200.0 mg/kg/injection, schedule: Q04DX002 (ip), vehicle: saline with Tween-80): 0 of 3
survivor count (T/C endpoint: mean survival time, dose: 400.0 mg/kg/injection, schedule: Q04DX002 (ip), vehicle: saline with Tween-80): 0 of 3

CC(=O)OC1=C(Cl)C(=O)c2ccccc2C1=O
survivor count (T/C endpoint: mean survival time, dose: 300.0 mg/kg/injection, schedule: Q01DX001 (ip), vehicle: other): 0 of 6

CN(C)/N=C/c1ccc(N(C)C)cc1
survivor count (T/C endpoint: mean survival time, dose: 100.0 mg/kg/injection, schedule: Q01DX009 (ip), vehicle: Klucel (hydroxypropylcellulose) (HPC)): 2 of 6
survivor count (T/C endpoint: mean survival time, dose: 100.0 mg/kg/injection, schedule: Q04DX003 (ip), vehicle: Klucel (hydroxypropylcellulose) (HPC)): 3 of 6
survivor count (T/C endpoint: mean survival time, dose: 200.0 mg/kg/injection, schedule: Q04DX003 (ip), vehicle: Klucel (hydroxypropylcellulose) (HPC)): 0 of 6
survivor count (T/C endpoint: mean survival time, dose: 400.0 mg/kg/injection, schedule: Q04DX003 (ip), vehicle: Klucel (hydroxypropylcellulose) (HPC)): 0 of 6

C1CN(P2(N3CC3)=NP(N3CC3)(N3CC3)=NP(N3CC3)(N3CC3)=N2)CCO1 (stereo unspecified)
T/C (T/C endpoint: mean survival time, dose: 12.5 mg/kg/injection, schedule: Q01DX009 (ip), vehicle: saline): 138 % of control
T/C (T/C endpoint: mean survival time, dose: 25.0 mg/kg/injection, schedule: Q01DX009 (ip), vehicle: saline): 146 % of control
T/C (T/C endpoint: mean survival time, dose: 50.0 mg/kg/injection, schedule: Q01DX001 (ip), vehicle: saline, evaluated on day 30): 130 % of control
T/C (T/C endpoint: mean survival time, dose: 50.0 mg/kg/injection, schedule: Q01DX001 (ip), vehicle: saline, evaluated on day 60): 140 % of control
survivor count (T/C endpoint: mean survival time, dose: 100.0 mg/kg/injection, schedule: Q01DX009 (ip), vehicle: saline): 10 of 10 and 6 of 6
survivor count [3]: 1 of 6
survivor count (T/C endpoint: mean survival time, dose: 200.0 mg/kg/injection, schedule: Q01DX009 (ip), vehicle: saline): 2 of 6, 5 of 10, 4 of 6
survivor count [4]: 0 of 6 and 10 of 10
survivor count (T/C endpoint: mean survival time, dose: 400.0 mg/kg/injection, schedule: Q01DX009 (ip), vehicle: saline): 5 of 6

CCN(C(=O)CCl)c1ccccc1C
survivor count (T/C endpoint: mean survival time, dose: 200.0 mg/kg/injection, schedule: Q01DX009 (ip), vehicle: saline with Tween-80): 0 of 6

C[N+](C)(C)Cc1ccc([N+](=O)[O-])cc1
survivor count (T/C endpoint: mean survival time, dose: 50.0 mg/kg/injection, schedule: Q01DX001 (ip), vehicle: saline): 1 of 4
survivor count (T/C endpoint: mean survival time, dose: 100.0 mg/kg/injection, schedule: Q01DX001 (ip), vehicle: saline): 0 of 4
survivor count [3]: 0 of 4
survivor count [4]: 0 of 4

CNCC(=O)NC(CO)C(=O)NC1C(C(N)=O)OC(n2ccc(N)nc2=O)C(O)C1O (stereo unspecified)
survivor count (T/C endpoint: median survival time, dose: 6.0 mg/kg/injection, schedule: Q04DX003 (ip), vehicle: saline): 3 of 8
survivor count (T/C endpoint: median survival time, dose: 12.0 mg/kg/injection, schedule: Q04DX003 (ip), vehicle: saline): 2 of 8

O=c1[nH]nc(CF)c(=O)[nH]1
T/C (T/C endpoint: mean survival time, dose: 25.0 mg/kg/injection, schedule: Q01DX Z (ip), vehicle: saline): 127 % of control
survivor count (T/C endpoint: mean survival time, dose: 40.0 mg/kg/injection, schedule: Q01DX Z (ip), vehicle: saline): 3 of 6
survivor count (T/C endpoint: mean survival time, dose: 48.0 mg/kg/injection, schedule: Q01DX009 (ip), vehicle: saline): 4 of 6

CCCCOC(=O)c1[nH]cnc1N
survivor count [4]: 3 of 6

Oc1[nH]c2ccccc2c1N=NC(=S)Nc1ccccc1
survivor count [5]: 6 of 6

CC(CNC(=O)CCOS(C)(=O)=O)NC(=O)CCOS(C)(=O)=O (stereo unspecified)
T/C (T/C endpoint: mean survival time, dose: 50.0 mg/kg/injection, schedule: Q01DX Z (ip), vehicle: carboxymethylcellulose (CMC)): 127 % of control
T/C (T/C endpoint: mean survival time, dose: 76.0 mg/kg/injection, schedule: Q01DX Z (ip), vehicle: carboxymethylcellulose (CMC)): 139 % of control
T/C (T/C endpoint: mean survival time, dose: 113.0 mg/kg/injection, schedule: Q01DX Z (ip), vehicle: carboxymethylcellulose (CMC)): 130 % of control
T/C (T/C endpoint: mean survival time, dose: 170.0 mg/kg/injection, schedule: Q01DX Z (ip), vehicle: carboxymethylcellulose (CMC)): 148 % of control

CC1CN=C(c2ccc(NC(=O)c3ccc(C(=O)Nc4ccc(C5=NCC(C)N5)cc4)cc3)cc2)N1 (stereo unspecified)
T/C (T/C endpoint: mean survival time, dose: 0.5 mg/kg/injection, schedule: Q01DX Z (ip), vehicle: carboxymethylcellulose (CMC)): 137 % of control
T/C (T/C endpoint: mean survival time, dose: 1.2 mg/kg/injection, schedule: Q01DX Z (ip), vehicle: carboxymethylcellulose (CMC)): 143 % of control
T/C (T/C endpoint: mean survival time, dose: 2.0 mg/kg/injection, schedule: Q01DX Z (ip), vehicle: saline): 126 % of control
T/C (T/C endpoint: mean survival time, dose: 4.0 mg/kg/injection, schedule: Q01DX Z (ip), vehicle: saline): 146 % of control
T/C (T/C endpoint: mean survival time, dose: 30.0 mg/kg/injection, schedule: Q01DX Z (ip), vehicle: saline): 135 % of control
T/C (T/C endpoint: mean survival time, dose: 49.0 mg/kg/injection, schedule: Q01DX Z (ip), vehicle: carboxymethylcellulose (CMC)): 148 % of control
T/C (T/C endpoint: mean survival time, dose: 111.0 mg/kg/injection, schedule: Q01DX Z (ip), vehicle: carboxymethylcellulose (CMC)): 135 % of control
T/C (T/C endpoint: mean survival time, dose: 166.0 mg/kg/injection, schedule: Q01DX Z (ip), vehicle: carboxymethylcellulose (CMC)): 129 % of control
T/C (T/C endpoint: mean survival time, dose: 250.0 mg/kg/injection, schedule: Q01DX Z (ip), vehicle: carboxymethylcellulose (CMC)): 126 % of control

O=C(CBr)c1ccc2c3c(cccc13)C=C2
survivor count (T/C endpoint: mean survival time, dose: 150.0 mg/kg/injection, schedule: Q01DX001 (ip), vehicle: saline): 2 of 6
survivor count [5]: 0 of 6

Cc1cnc(SCc2ccc(Cl)cc2)nc1N(C)C
survivor count (T/C endpoint: mean survival time, dose: 100.0 mg/kg/injection, schedule: Q01DX Z (ip), vehicle: methylcellulose (MC)): 5 of 6
survivor count (T/C endpoint: mean survival time, dose: 200.0 mg/kg/injection, schedule: Q01DX Z (ip), vehicle: methylcellulose (MC)): 5 of 6

CC1CC(C)(C)N=C(C2(c3ccccc3)CC2)O1 (stereo unspecified)
survivor count (T/C endpoint: mean survival time, dose: 200.0 mg/kg/injection, schedule: Q04DX003 (ip), vehicle: saline with Tween-80): 5 of 6
survivor count [2]: 1 of 6

CCC1(O)CC2CN(CCc3c([nH]c4ccccc34)C(C(=O)OC)(c3cc4c(cc3OC)N(C)C3C(O)(C(=O)NCCO)C(O)C5(CC)C=CCN6CCC43C65)C2)C1 (stereo unspecified)
T/C (T/C endpoint: mean survival time, dose: 0.26 mg/kg/injection, schedule: Q01DX009 (ip), vehicle: saline): 130 % of control
T/C (T/C endpoint: mean survival time, dose: 0.43 mg/kg/injection, schedule: Q01DX009 (ip), vehicle: saline): 148 % of control
T/C (T/C endpoint: mean survival time, dose: 0.65 mg/kg/injection, schedule: Q04DX003 (ip), vehicle: saline): 127 % of control
T/C (T/C endpoint: mean survival time, dose: 0.72 mg/kg/injection, schedule: Q01DX009 (ip), vehicle: saline): 138 % of control
T/C (T/C endpoint: mean survival time, dose: 1.08 mg/kg/injection, schedule: Q04DX003 (ip), vehicle: saline): 132 % of control
T/C (T/C endpoint: mean survival time, dose: 1.8 mg/kg/injection, schedule: Q04DX003 (ip), vehicle: saline): 145 % of control
T/C (T/C endpoint: mean survival time, dose: 3.0 mg/kg/injection, schedule: Q04DX003 (ip), vehicle: saline): 134 % of control [7 of 8 alive]
T/C (T/C endpoint: mean survival time, dose: 1800.0 micrograms/kg/injection, schedule: Q04DX003 (ip), vehicle: saline): 138 % of control
T/C (T/C endpoint: mean survival time, dose: 3000.0 micrograms/kg/injection, schedule: Q04DX003 (ip), vehicle: saline): 140 % of control

C(#Cc1ccccc1)COCC1CO1 (stereo unspecified)
survivor count [2]: 0 of 6
